Reference: PubChem BioAssay AID2685 (National Center for Advancing Translational Sciences (NCATS), 2010)
The list shows a part of the results. These are further read-outs of the screen, such as a control signal, another cell line or another target. No call is given for them. Most of these compounds were active or inconclusive in the main read-out, so they are no random draw. Words in brackets tell the shape of the fitted curve; partial curves, single points and poor fits give uncertain potencies.

Assay: qHTS Assay for Lipid Storage Modulators in Drosophila S3 Cells;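 on cell number change: cells counted by Cell Tracker Red CMTPX staining in the red channel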
Settings: BODIPY lipid droplet fluorescence, 18-24 h; for cell number change: measured here: cell count max response, cells fed with added oleic acid
Method in brief: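 Drosophila S3 cells got compounds at several concentrations plus oleic acid (400 uM solution). Laser-scanning cytometry with 488 nm excitation read lipid droplets at 500-530 nm and cells at 575-640 nm. Percent activity was relative to 20 uM Triacsin C.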

[1] = measured here: cell number channel AC50, cells fed with added oleic acid
[2] = measured here: lipid fluorescence (Fed channel) AC50, cells fed with added oleic acid

N#Cc1nc(/C=C/c2ccccc2)oc1NCCCN1CCOCC1
cell number change: 70.4% | AC50 [1]: 5.8 µM [rising, partial curve]

Cc1cccc(NC(=O)c2cc(Cl)sc2Cl)c1C
cell number change: 17.1%

CCOc1cc(C2NC(=S)NC(C)=C2C(=O)Nc2ccccc2)ccc1O (configuration not stated)
cell number change: -14.1% | AC50 [2]: 32.6 µM [falling, single point]

O=C(c1ccc2c(c1)OCO2)C1CCCN(Cc2cccc(C(F)(F)F)c2)C1 (configuration not stated)
cell number change: 43.8% | AC50 [1]: 29.1 µM [rising, single point] | AC50 [2]: 29.1 µM [rising, single point]

CCCOC(=O)C1=C(C)NC2=C(C(=O)CC(C)(C)C2)C1c1ccc(N(C)C)cc1 (configuration not stated)
AC50 [1]: 5.8 µM [rising, single point] | AC50 [2]: 0.00411 µM [falling, full curve, poor fit]

Cc1cc(C)n2nc(SCCOc3ccccc3F)nc2n1
AC50 [2]: 0.116 µM [falling, full curve, poor fit]

Cc1ccc(CNC(=O)C2CCCN(S(=O)(=O)c3cccnc3)C2)cc1 (configuration not stated)
cell number change: -5.54% | AC50 [2]: 0.146 µM [rising, full curve, poor fit]

CCOc1ccc(C(=O)NCCc2cnc[nH]2)cc1
cell number change: -32.4% | AC50 [1]: 29.1 µM [falling, single point]

CC1C(=O)NN=C1C(=O)N/N=C/c1ccco1 (configuration not stated)
cell number change: -16.9% | AC50 [1]: 0.517 µM [rising, single point]

COc1cccc(C2(O)CC(C(F)(F)F)=NN2C(=O)c2ccccn2)c1 (configuration not stated)
cell number change: 15.2% | AC50 [2]: 0.92 µM [rising, single point]

COc1ccccc1CNC(=O)c1ccc(S(=O)(=O)N(C)C)cc1
cell number change: -53.1% | AC50 [1]: 0.164 µM [falling, full curve, poor fit]

Cc1ccc(S(=O)(=O)N(C)CC(=O)N2CCCc3ccccc32)cc1
cell number change: -11.9% | AC50 [2]: 0.731 µM [falling, single point]

CCOc1ccc2nc(SCC(=O)NCc3ccc(OC)cc3)[nH]c2c1
AC50 [2]: 6.51 µM [rising, partial curve, poor fit]

COc1ccc(/C=N/NC(N)=S)cc1OC(=O)c1cccc2ccccc12
cell number change: 23%

Cc1cc2nc3c(=O)n(CCc4ccccc4)c(=O)[nH]c3nc2cc1N
AC50 [2]: 29.1 µM [falling, single point]

COc1ccc(NC(=O)CS(=O)CC(=O)Nc2ccc(-n3cnnn3)c(C)c2)cc1 (configuration not stated)
cell number change: 4.17%

COc1ccc(S(=O)(=O)N2CCCCCC2)cc1C(=O)N(C)CC(=O)Nc1cc(C)ccc1C
AC50 [2]: 2.06 µM [rising, partial curve]

O=C1O/C(=C\c2ccccc2)c2ccccc21
cell number change: 9.16% | AC50 [2]: 20.6 µM [rising, partial curve]

Cc1ccc(-c2cc(C(=O)N3CCN(c4ccc(F)cc4)CC3)c3ccccc3n2)o1
cell number change: 116%

COc1ccccc1C(=O)NNC(=O)c1cccc(Br)c1
cell number change: 24.5% | AC50 [2]: 29.1 µM [rising, single point]

O=C(NNC1=C(C(=O)C(F)(F)F)CCC1)c1cccc(Cl)c1
cell number change: 22% | AC50 [2]: 6.51 µM [rising, single point]

CC(=O)Nc1ccc(/C=C/c2ccc3c([N+](=O)[O-])cccc3n2)cc1
AC50 [2]: 0.731 µM [rising, single point]

C=CCc1ccc(OCC(O)CN2CCCCC2)c(OC)c1 (configuration not stated)
cell number change: 2.87% | AC50 [2]: 0.164 µM [falling, full curve, poor fit]

Cc1ccc(OCC(=O)N/N=C/c2ccc([N+](=O)[O-])o2)cc1
cell number change: -53.8% | AC50 [1]: 23.1 µM [falling, single point]

Cn1nc(-c2ccc(OCC(=O)Nc3ccccc3)cc2)c2ccccc2c1=O
cell number change: -10.6% | AC50 [2]: 0.651 µM [rising, single point]

O=C(CCC(=O)N1CCN(c2ccc(F)cc2)CC1)N1CCN(c2ccc(F)cc2)CC1
cell number change: -1.68%

COc1cccc(CCC(=O)Nc2cc3c(cc2C(=O)O)OCCCO3)c1OC
cell number change: -17% | AC50 [1]: 0.058 µM [falling, full curve, poor fit] | AC50 [2]: 6.51 µM [falling, full curve, poor fit]

COc1ccc2cc(S(=O)(=O)N3CCCCCC3)ccc2c1
cell number change: -26.7% | AC50 [2]: 29.1 µM [falling, single point]

Cc1sc2nc(CN3CCCC3)nc(N3CCN(S(=O)(=O)c4cccc(F)c4)CC3)c2c1C
cell number change: 8.9% | AC50 [2]: 5.8 µM [rising, full curve, poor fit]

Cc1ccc(N2C(=O)S/C(=C/c3cn(C)c4ccccc34)C2=O)cc1
cell number change: 15.9% | AC50 [1]: 1.84 µM [rising, single point]

CCOC(=O)c1ccc2nc(CCC(=O)N[C@H](C(=O)OC)C(C)C)c(=O)n(CC)c2c1
cell number change: 29.8% | AC50 [1]: 4.11 µM [rising, single point]

Cc1ccc(C(=O)c2c3ccc([N+](=O)[O-])cc3[n+]([O-])n2CCCC(N)=O)cc1
cell number change: -35.4% | AC50 [1]: 29.1 µM [falling, single point] | AC50 [2]: 3.66 µM [falling, single point]

CCc1nc(-c2ccccc2)c2ccccn12
cell number change: 5.17% | AC50 [2]: 0.731 µM [falling, single point]

COc1cc(/C=C2\SC(=Nc3ccc(O)cc3)NC2=O)cc(OC)c1OC
cell number change: 37.4% | AC50 [1]: 32.6 µM [rising, single point] | AC50 [2]: 29.1 µM [rising, single point]

O=C(NCc1ccc(F)cc1)C1CCN(S(=O)(=O)c2ccc(Cl)cc2)CC1
cell number change: 23.4% | AC50 [2]: 29.1 µM [falling, single point]

Cc1ncc([N+](=O)[O-])n1CC(=O)Nc1ccc(F)c(F)c1
cell number change: 51.8% | AC50 [1]: 20.6 µM [rising, single point]

COc1cc(C(=O)OCc2nc3ccsc3c(=O)[nH]2)c([N+](=O)[O-])cc1OC
cell number change: 11.1% | AC50 [2]: 0.82 µM [rising, single point]

O=C(CN1C(=O)CCSc2ccc(S(=O)(=O)N3CCCC3)cc21)NCc1ccccc1Cl
cell number change: 8.78% | AC50 [2]: 14.6 µM [rising, partial curve, poor fit]

Clc1ccc(-c2cccs2)nn1
cell number change: -4.21% | AC50 [2]: 0.13 µM [falling, full curve, poor fit]
